Data as given in patent US12516062B2, “Agricultural or horticultural insecticide or animal ectoparasite or endoparasite control agent each comprising an imidazopyridazine compound having a substituted cyclopropane-oxadiazole group or a salt thereof as active ingredient, and method for using the insecticide or the control agent” (NIHON NOHYAKU CO., LTD., priority 2019, dated 2026).
Some of these results come from one statement about several compounds together.

Tested on: Myzus persicae
Experiment: Test for control efficacy on Myzus persicae (foliar application, Chinese cabbage)
Assay type: in vivo
Conditions: 500 ppm, foliar application to potted Chinese cabbage, 6 days after application

SMILES	control efficacy (control rate), activity level
CCS(=O)(=O)c1cc(-c2noc(C3CC3C)n2)cnc1-c1nc2cc(C(F)(F)C(F)(F)F)nnc2n1C (stereo not shown) [Compound 1-1]	A (the control rate is 100%.)
CCS(=O)(=O)c1cc(-c2noc(C3(C(F)(F)F)CC3)n2)cnc1-c1nc2cc(C(F)(F)C(F)(F)F)nnc2n1C [Compound 1-2, 3-(5-(ethylsulfonyl)-6-(3-methyl-6-pentafluoroethyl-3[ ]-imidazo[4,5-c]pyridazin-2-yl)pyridin-3-yl)-5-(1-trifluoromethylcyclopropyl)-1,2,4-oxadiazole]	A (the control rate is 100%.)
CCS(=O)(=O)c1cc(-c2noc(C3(c4ccccc4)CC3)n2)cnc1-c1nc2cc(C(F)(F)C(F)(F)F)nnc2n1C [Compound 1-3]	A (the control rate is 100%.)
CCS(=O)(=O)c1cc(-c2noc(C3(C)CC3)n2)cnc1-c1nc2cc(C(F)(F)C(F)(F)F)nnc2n1C [Compound 1-4]	A (the control rate is 100%.)
